Measured values reported in patent US20130190237A1, “METHODS FOR CATEGORISING CANCER SUCH AS BREAST CANCER” (IMPERIAL INNOVATIONS LIMITED, priority 2010, published 2013).
For at least one compound, name, drawing or mass did not settle the structure.

System: LMTK3 gene expression
Assay: LMTK3 gene expression after E2 or tamoxifen
Assay type: cell-based

Question: How did the LMTK3 expression turn out when `C[C@]12CC[C@@H]3c4ccc(O)cc4CC[C@H]3[C@@H]1CC[C@@H]2O` [E2, Estradiol] was run?
Answer: Its LMTK3 expression is “down-regulated”.
